Test results: patent US11685954B2, “Biomarkers predictive of endocrine resistance in breast cancer” (Dana-Farber Cancer Institute, Inc., priority 2016, dated 2023)
“Also recorded” adds a separate entry of the source.

What was measured:
[1] = system: breast cancer PDX models with CSK CNV loss; conditions: BCaPE data; compared with models without CSK loss; cited from earlier work
[2] = system: CSK-null T47D and MCF7 cells; assay: Relative cell viability of control (AAVS1) and CSK-null cells after ER antagonist treatment for 5 days; conditions: hormone-depleted medium plus vehicle

## CC/C(=C(\c1ccccc1)c1ccc(OCCN(C)C)cc1)c1ccccc1 [tamoxifen]
[1]
  IC50 in PDX models with CSK CNV loss: higher
[2]
  sensitivity of CSK-null cells (relative cell viability): completely resistant; also recorded: but not
